Measured values: ChEMBL document CHEMBL2434821, “New phenstatin-fatty acid conjugates: synthesis and evaluation” (Bioorg Med Chem Lett, 2013)

Assay: Cytotoxicity against human H460 cells after 72 hrs by MTT assay
Assay type: functional, cell-based
Conditions: NCI-H460, 72 h

COc1cc2c(c(OC)c1OC)-c1ccc(OC)c(=O)cc1[C@@H](NC(C)=O)CC2 [COLCHICINE]
IC50: 22 nM
